Laboratory results: patent publication US20230255953A1, “USE OF ROLUPERIDONE IN PREVENTING RELAPSE IN SCHIZOPHRENIA PATIENTS” (Minerva Neurosciences, Inc., priority 2022, published 2023)

Test system: patients with schizophrenia
Test: Antipsychotic effectiveness after use of Roluperidone (time to symptom improvement)
Type: in vivo, human
Details: MIN-101C03 and MIN-101C07

Substance: 1H-Isoindol-1-one,2-[ [1-[2-(4-fluorophenyl)-2-oxoethyl]-4-piperidinyl]methyl]-2,3-dihydro-, hydrochloride, hydrate (1:1:2) [Roluperidone]
- Median time to symptom improvement after stopping study drug and starting an antipsychotic (patients on 32 mg Roluperidone in DB): 12 days
- Median time to symptom improvement after stopping study drug and starting an antipsychotic (patients on 64 mg Roluperidone in DB): 17 days
